Article PMC6329795
These are yes or no findings as the source states them, for the method shown. In cells and extracts the contact can be indirect. Some entries that bind do so weakly or less than the wild type.

Chains of the proteins cited; added tags and fusions are not shown. Lines headed by an entry give the natural chain unless they say otherwise; changes in a name come on top.
UniProt B6SBL8: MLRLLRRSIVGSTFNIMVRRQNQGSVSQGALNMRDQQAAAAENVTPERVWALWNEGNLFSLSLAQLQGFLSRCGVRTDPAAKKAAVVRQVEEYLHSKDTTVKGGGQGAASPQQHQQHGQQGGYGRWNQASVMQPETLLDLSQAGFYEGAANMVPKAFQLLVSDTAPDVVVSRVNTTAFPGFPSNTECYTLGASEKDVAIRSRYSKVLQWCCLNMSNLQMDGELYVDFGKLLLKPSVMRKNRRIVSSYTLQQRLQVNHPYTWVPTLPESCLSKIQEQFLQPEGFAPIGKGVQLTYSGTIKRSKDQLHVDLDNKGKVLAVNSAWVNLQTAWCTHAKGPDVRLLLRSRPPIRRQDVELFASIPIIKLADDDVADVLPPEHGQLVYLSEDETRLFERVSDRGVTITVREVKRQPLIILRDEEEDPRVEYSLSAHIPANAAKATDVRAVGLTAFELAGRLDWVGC
UniProt B6SBM0: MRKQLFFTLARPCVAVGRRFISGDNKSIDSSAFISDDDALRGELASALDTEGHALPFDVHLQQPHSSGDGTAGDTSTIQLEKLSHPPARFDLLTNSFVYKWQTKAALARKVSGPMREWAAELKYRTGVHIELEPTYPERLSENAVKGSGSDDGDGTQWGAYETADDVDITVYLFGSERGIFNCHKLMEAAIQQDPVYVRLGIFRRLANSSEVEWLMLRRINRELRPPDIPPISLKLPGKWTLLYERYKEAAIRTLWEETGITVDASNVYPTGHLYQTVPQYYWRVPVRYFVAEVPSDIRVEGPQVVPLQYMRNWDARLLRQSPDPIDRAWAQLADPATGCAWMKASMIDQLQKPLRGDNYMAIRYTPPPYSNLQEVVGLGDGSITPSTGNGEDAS

Biological target: GRBC1/2 (RNA editing substrate-binding complex, RESC) (Trypanosoma brucei (endogenous in procyclic T. brucei)) (UniProt B6SBL8)
Assay: co-sedimentation + native gel or EMSA; detergent extract of crude mitochondrial fraction, 10-30% glycerol gradient 5 h at 178,000 x g, each fraction on 3-12% Bis-Tris native gel, immunoblotting

MERS1 NUDIX hydrolase (PPsome subunit) (from UniProt B6SBM0 1-395) (enzyme)
binding: binds
